Data from the supplement of paper PMC9744312.
Where a name gives a salt, the structure may show the parent alone. The list shows a part of the results. Single values of this set are uncertain.

test system: Peyronie's disease tunica albuginea primary fibroblasts; assay: inhibition of TGF-beta1-induced alpha-SMA expression (myofibroblast transformation), relative to TGF-beta1-only and untreated controls; higher = stronger inhibition of myofibroblast transformation; details: 10 µM; TGF-beta1 10 ng/mL; 72 h

Row | SMILES | inhibition of TGF-beta1-induced alpha-SMA expression [%]
1 | O=c1c(-n2ccnn2)c[nH]n1-c1cc(N2CCOCC2)ncn1 [Molidustat (BAY 85-3934)] | 86.6
2 | Cn1cnc2c(F)c(Nc3ccc(Br)cc3F)c(C(=O)NOCCO)cc21 | -95.3
3 | NC(=O)c1cnccn1 [Pyrazinamide] | 40.1
4 | CO[C@@H]1[C@H](OC(=O)/C=C/C=C/C=C/C=C/C(=O)O)CC[C@]2(CO2)[C@H]1[C@@]1(C)O[C@@H]1CC=C(C)C [Fumagillin] | 12.4
5 | O=C(CCNNC(=O)c1ccncc1)NCc1ccccc1 [Nialamide] | 7.69
6 | CSc1nc2cc(Cl)c(Oc3cccc(Cl)c3Cl)cc2[nH]1 [Triclabendazole] | -20.5
7 | Cc1ccccc1N1CCN(CCc2nnc3n2CCCC3)CC1 [Dapiprazole Hydrochloride] | -22.3
8 | O=C1[C@@H]2[C@H]3CC[C@H](C3)[C@@H]2C(=O)N1C[C@@H]1CCCC[C@H]1CN1CCN(c2nsc3ccccc23)CC1 [lurasidone] | 11.4
9 | CCCCC[C@H](O)/C=C/[C@H]1[C@H](O)CC(=O)[C@@H]1C/C=C\CCCC(=O)O [Prostaglandin E2 (PGE2)] | 40.6
10 | COc1cccc2c1C(=O)c1c(O)c3c(c(O)c1C2=O)C[C@@](O)(C(=O)CO)C[C@@H]3O[C@H]1C[C@H](N)[C@@H](O)[C@H](C)O1 [Epirubicin HCl] | > 100
11 | CCCN(CCC)CCc1cccc2c1CC(=O)N2 [Ropinirole HCl] | 19.2
12 | O[C@H]1[C@H](O)[C@@H](O)[C@H](O)[C@@H](O)[C@H]1O [i-Inositol] | -18.6
13 | CC(=O)O[C@H]1C(=O)[C@@]2(C)[C@H]([C@H](OC(=O)c3ccccc3)[C@]3(O)C[C@H](OC(=O)[C@H](O)[C@@H](NC(=O)c4ccccc4)c4ccccc4)C(C)=C1C3(C)C)[C@]1(OC(C)=O)CO[C@@H]1C[C@@H]2O [Paclitaxel] | 86.5
14 | Cc1[nH]c(=O)c(C#N)cc1-c1ccc2nccn2c1 [Olprinone] | 18.9
15 | COc1c(-c2ccc3cc(NS(C)(=O)=O)ccc3c2)cc(-n2ccc(=O)[nH]c2=O)cc1C(C)(C)C [Dasabuvir(ABT-333)] | 35.3
16 | O=C([O-])[C@H](O)[C@@H](O)[C@H](O)[C@H](O)CO.O=C([O-])[C@H](O)[C@@H](O)[C@H](O)[C@H](O)CO.[Ca+2] [Calcium gluconate] | 13.4
17 | CC1=C(/C=C/C(C)=C/C=C/C(C)=C/CO)C(C)(C)CCC1 [Vitamin A] | 33.4
18 | Cc1ncc([N+](=O)[O-])n1CC(C)O (configuration not stated) [Secnidazole] | 12
19 | O=C(O)c1ccccc1OP(=O)(O)O [Fosfosal] | 14.8
20 | COc1ccc2cc([C@H](C)C(=O)O)ccc2c1 [Naproxen Sodium] | 17.5
21 | C[C@]12CCC(=O)C=C1[C@@H]1C[C@@H]1[C@H]1[C@@H]3[C@@H]4C[C@@H]4[C@@]4(CCC(=O)O4)[C@@]3(C)CC[C@@H]12 [Drospirenone] | -5.96
22 | CC1(C)S[C@@H]2[C@H](NC(=O)[C@H](N)c3ccccc3)C(=O)N2[C@H]1C(=O)O [Ampicillin Trihydrate] | -21.2
23 | CC1(C)S[C@@H]2[C@H](NC(=O)[C@H](N)c3ccccc3)C(=O)N2[C@H]1C(=O)O [Ampicillin sodium] | 6.06
24 | O=C(O)c1cc(=O)[nH]c(=O)[nH]1 [Orotic acid (6-Carboxyuracil)] | 7.04

Row | SMILES | inhibition of TGF-beta1-induced alpha-SMA expression [%]
25 | O=c1n(CCCN2CCN(c3cccc(Cl)c3)CC2)nc2ccccn12 [Trazodone HCl] | 26.9
26 | Cc1ccc(-n2nc(C(C)(C)C)cc2NC(=O)NCc2cc(F)ccc2Oc2ccc3c(cnn3CCO)c2)cc1 [Pexmetinib (ARRY-614)] | 60.4
27 | O=C(NC[C@H](O)CO)c1ccncc1Nc1ccc(I)cc1F | -170
28 | CCOC(=O)[C@H](CCc1ccccc1)N[C@@H](C)C(=O)N1C(=O)N(C)C[C@H]1C(=O)O [Imidapril HCl] | -8.01
29 | C[C@@H]1C[C@H]2[C@@H]3CCC4=CC(=O)C=C[C@]4(C)[C@@]3(Cl)[C@@H](O)C[C@]2(C)[C@@]1(OC(=O)c1ccco1)C(=O)CCl [Mometasone furoate] | 73
30 | C[C@]12CCC3=C4CCC(=O)C=C4CC[C@H]3[C@@H]1CC[C@@]2(O)CC#N [Dienogest] | 21.9
31 | O=c1oc2cc(O)ccc2s1 [Tioxolone] | -15.4
32 | O=C(O)c1ccccc1O [Salicylic acid] | 25.3
33 | C/C(=C\C(=O)OCCCCCCCCC(=O)O)C[C@@H]1OC[C@H](C[C@@H]2O[C@H]2[C@@H](C)[C@H](C)O)[C@@H](O)[C@H]1O [Mupirocin] | 14.9
34 | C/C(=C\C(=O)OCCCCCCCCC(=O)O)C[C@@H]1OC[C@H](C[C@@H]2O[C@H]2[C@@H](C)[C@H](C)O)[C@@H](O)[C@H]1O [Mupirocin calcium] | 22.7
35 | N/N=c1\[nH][nH]/c(=N\N)c2ccccc12 [Dihydralazine sulphate] | -30.7
36 | CN/C(=N\CCSCc1nc[nH]c1C)NC#N [Cimetidine] | 25.4
37 | CC(C)N(CCCCOCC(=O)NS(C)(=O)=O)c1cnc(-c2ccccc2)c(-c2ccccc2)n1 [Selexipag] | 14.4
38 | NC(=O)c1ccc(I)c([N+](=O)[O-])c1 [Iniparib (BSI-201)] | -12.9
39 | C#C[C@]1(O)CC[C@H]2[C@@H]3CCC4=CC(=O)CC[C@@H]4[C@H]3C(=C)C[C@@]21CC [Etonogestrel] | 27.9
40 | O=C(O)c1cc(/N=N/c2ccc(S(=O)(=O)Nc3ccccn3)cc2)ccc1O [Sulfasalazine] | -14.8
41 | CC(=O)c1c(C)c2cnc(Nc3ccc(N4CCNCC4)cn3)nc2n(C2CCCC2)c1=O | > 100
42 | COc1nccnc1NS(=O)(=O)c1ccc(N)cc1 [Sulfalene(SMPZ)] | 19.3
43 | Oc1cccc(O)c1 [Resorcinol] | -10.8
44 | C[C@@H](O[C@H]1OCCN(Cc2n[nH]c(=O)[nH]2)[C@H]1c1ccc(F)cc1)c1cc(C(F)(F)F)cc(C(F)(F)F)c1 [Aprepitant] | 45.6
45 | Cc1cc(O)cc(C)c1Cl [Chloroxylenol] | -3.65
46 | CCCCN(CCCC)CC(O)c1cc(Cl)cc2c1-c1ccc(Cl)cc1/C2=C/c1ccc(Cl)cc1 (configuration not stated) [Lumefantrine] | 3.03
47 | Cc1cn(-c2cc(NC(=O)c3ccc(C)c(Nc4nccc(-c5cccnc5)n4)c3)cc(C(F)(F)F)c2)cn1 [Nilotinib hydrochloride] | 1.08
48 | Cc1cn(-c2cc(NC(=O)c3ccc(C)c(Nc4nccc(-c5cccnc5)n4)c3)cc(C(F)(F)F)c2)cn1 [Nilotinib (AMN-107)] | -6.48

Row | SMILES | inhibition of TGF-beta1-induced alpha-SMA expression [%]
49 | COC(=O)CCC(=O)CN [Methyl Aminolevulinate Hydrochloride] | 9.88
50 | CS(=O)(=O)c1cccc(C[C@H](NC(=O)c2c(Cl)cc3c(c2Cl)CCN(C(=O)c2ccc4ccoc4c2)C3)C(=O)O)c1 [Lifitegrast] | -1.97
51 | O=S(=O)(O)Oc1ccc(C(c2ccc(OS(=O)(=O)O)cc2)c2ccccn2)cc1 [Sodium Picosulfate] | -15.4
52 | NC(=O)CC[C@H](N)C(=O)O [L-Glutamine] | -1.8
53 | Cc1cc2c(s1)Nc1ccccc1N=C2N1CCN(C)CC1 [Olanzapine] | -3.97
54 | CNC(=O)c1ccc(Nc2ncc(C(F)(F)F)c(NCc3nccnc3N(C)S(C)(=O)=O)n2)cc1 | 36
55 | Cc1ccc(NC(=O)C2(c3ccc4c(c3)OC(F)(F)O4)CC2)nc1-c1cccc(C(=O)O)c1 [VX-809 (Lumacaftor)] | 77.1
56 | OCCOc1ccc(/C(=C(/CCCl)c2ccccc2)c2ccccc2)cc1 [Ospemifene] | 10.9
57 | CC(C)OC(=O)C(C)(C)Oc1ccc(C(=O)c2ccc(Cl)cc2)cc1 [Fenofibrate] | -3.18
58 | CCN(CC)CCOC(=O)c1ccc(N)cc1 [Procaine] | 8.32
59 | CCN(CC)CCOC(=O)c1ccc(N)cc1 [Procaine HCl] | 19.5
60 | CC[C@H](C)C(=O)O[C@H]1C[C@@H](C)C=C2C=C[C@H](C)[C@H](CC[C@@H]3C[C@@H](O)CC(=O)O3)[C@H]21 [Lovastatin] | 100
61 | Clc1ccc(C(Cn2ccnc2)OCc2ccc(Sc3ccccc3)cc2)c(Cl)c1 (configuration not stated) [Fenticonazole Nitrate] | 5.48
62 | C[C@@H](c1nc(-c2ccc(C#N)cc2)cs1)[C@](O)(Cn1cncn1)c1cc(F)ccc1F [Isavuconazole] | 15.5
63 | C[C@]1(c2nc3c(C(N)=O)cccc3[nH]2)CCCN1 [Veliparib (ABT-888)] | -46.6
64 | CC(=O)N[C@@H](CS)C(=O)O [Acetylcysteine] | 1.47
65 | CC(=O)O[C@H]1C[C@@]2(C)[C@@H](C[C@@H](O)[C@H]3[C@@]4(C)CC[C@@H](O)[C@@H](C)[C@@H]4CC[C@@]32C)/C1=C(\CCC=C(C)C)C(=O)O [Fusidate Sodium] | -26.3
66 | COc1cc(C2Oc3cc([C@H]4Oc5cc(O)cc(O)c5C(=O)[C@@H]4O)ccc3OC2CO)ccc1O (some centres not stated) [Silibinin] | 23.7
67 | CN(C)CCn1nnnc1SCC1=C(C(=O)O)N2C(=O)[C@@H](NC(=O)Cc3csc(N)n3)[C@H]2SC1 [Cefotiam hydrochloride] | 11.2
68 | CNC[C@H](O)[C@@H](O)[C@H](O)[C@H](O)CO [Meglumine] | 48.5
69 | NCCCC(O)(P(=O)(O)O)P(=O)(O)O [Alendronate sodium trihydrate] | 50.7
70 | N.N.O=C([O-])C[O-].[Pt+2] [Nedaplatin] | 61
71 | COC(=O)N[C@H](C(=O)N[C@@H](Cc1ccccc1)[C@@H](O)CN(Cc1ccc(-c2ccccn2)cc1)NC(=O)[C@@H](NC(=O)OC)C(C)(C)C)C(C)(C)C [Atazanavir Sulfate] | -14.1
72 | COC(=O)N[C@H](C(=O)N[C@@H](Cc1ccccc1)[C@@H](O)CN(Cc1ccc(-c2ccccn2)cc1)NC(=O)[C@@H](NC(=O)OC)C(C)(C)C)C(C)(C)C [Atazanavir] | 10.1

Fetched one by one from above, 6 records:
Row | SMILES | inhibition of TGF-beta1-induced alpha-SMA expression [%]
70 | N.N.O=C([O-])C[O-].[Pt+2] [Nedaplatin] | 61
53 | Cc1cc2c(s1)Nc1ccccc1N=C2N1CCN(C)CC1 [Olanzapine] | -3.97
68 | CNC[C@H](O)[C@@H](O)[C@H](O)[C@H](O)CO [Meglumine] | 48.5
56 | OCCOc1ccc(/C(=C(/CCCl)c2ccccc2)c2ccccc2)cc1 [Ospemifene] | 10.9
58 | CCN(CC)CCOC(=O)c1ccc(N)cc1 [Procaine] | 8.32
57 | CC(C)OC(=O)C(C)(C)Oc1ccc(C(=O)c2ccc(Cl)cc2)cc1 [Fenofibrate] | -3.18
